# Structures can show the parent of a compound that is named as a salt. Some results were stated once for a whole list of compounds, not compound by compound.
# Target: T1, MCH1R (Homo sapiens, UniProt Q99705)
# T1 construct: IC50; other: cells stably expressing non-endogenous active MCH1R; 50 nM MCH; Fluo-4 calcium, FDSS6000; list of compounds i
# Experiment: MCH1R calcium evaluation test (FDSS assay, inhibition of MCH-induced intracellular calcium increase)
# Format: cell-based
# Settings: cells stably expressing non-endogenous active MCH1R; 50 nM MCH; list of compounds in text; read-out: IC50 value of 30 nM or less
# From the text: MCH1R Calcium Evaluation Test
# An FDSS assay can measure the intracellular calcium concentration and can evaluate the Gq-coupled receptor activity using the calcium concentration as an index. For example, the assay can determine whether an analyte is an antagonist, an inverse agonist or an agonist for a Gq-coupled receptor. The FDSS6000™ system (Hamamatsu Photonics K.K.) is designed to perform evaluation based on functionality such as measurement of intracellular calcium for high-throughput screening. Intracellular calcium release by activation of a Gq-coupled receptor can be fluorometrically measured by incorporating a calcium indicator (such as Fluo4) into cells. On the other hand, the assay cannot measure the activation of Gi- and Go-coupled receptors, because the activation is not associated with calcium signaling pathways.
# Intracellular fluorescence can be rapidly and successively measured in a 96-well microplate or a 384-well microplate using a fluorometric imaging plate reader system. FDSS6000™ can simultaneously measure fluorescence in all wells sensitively, accurately and by seconds. This system is ideal for functional analysis in cells such as monitoring of an intracellular calcium flow generated within several seconds after activation of a Gq-coupled receptor.
# On the day before the test, cells stably expressing non-endogenous active MCH1R were seeded into a 96-well microplate at 3×10^4 cells per well. 100 μL per well of a medium (Dulbecco's modified Eagle medium containing 10% fetal bovine serum, 2 mM glutamine, 1 mM sodium pyruvate and 0.5 mg/mL G418, pH 7.4) was used for culture. On the day of the test, the medium was removed and an assay buffer {Hank's balanced salt solution containing 20 mM HEPES, 0.5 mM probenecid, 0.05 mg/mL amaranth and 0.2% bovine serum albumin (BSA), pH 7.4} containing 2 μM Fluo-4-AM and 0.04% Pluronic F127 was added at 100 μL per well, followed by incubation in a 5% CO2 incubator at 37° C. for one hour. Thereafter, the buffer was removed and an assay buffer containing each concentration of the test compound was newly added at 150 μL per well, followed by incubation in a 5% CO2 incubator at 37° C. for 30 minutes. An assay buffer containing each concentration of MCH was added at 50 μL per well, and transient changes in the intracellular calcium concentration induced by MCH were monitored using FDSS6000™ at Ex. 488 nm and Em. 530 nm for 180 seconds. In testing the antagonistic activity of the analyte, MCH was added to a final concentration of 50 nM. An inhibition curve was prepared with various concentrations of the analyte, and the concentration of the analyte inhibiting 50% of the increase in intracellular calcium when 50 nM MCH was added (IC50 value) was calculated using data analysis software Origin Ver. 6.
row,Compound,IC50 [nM]
1,"COCCOCc1ccc2ccc(CN3CCC(NC(=O)C(c4ccccc4)c4ccccc4)CC3)cc2c1 [Example 149, N-[1-({7-[(2-Methoxyethoxy)methyl]naphthalen-2-yl}methyl)piperidin-4-yl]-2,2-diphenylacetamide]",≤ 30
2,"COCCCOCc1ccc2ccc(CN3CCC(NC(=O)c4cccc(OC)c4)CC3)cc2c1 [Example 31, 3-Methoxy-N-[1-({7-[(3-methoxypropoxy)methyl]-2-naphthyl}methyl)piperidin-4-yl]benzamide]",≤ 30
3,"COCCOCc1ccc2ccc(CN3CCC(NC(=O)c4cccc(OC(F)(F)F)c4)CC3)cc2c1 [Example 84, N-[1-({7-[(2-Methoxyethoxy)methyl]-2-naphthyl}methyl)piperidin-4-yl]-3-(trifluoromethoxy)benzamide]",≤ 30
4,"COCCOCc1ccc2ccc(C(C)N3CCC(NC(=O)c4cccc(OC)c4)CC3)cc2c1 (stereo not shown) [Example 135, 3-methoxy-N-[1-(1-{7-[(2-methoxyethoxy)methyl]-2-naphthyl}ethyl)piperidin-4-yl]benzamide hydrochloride]",≤ 30
5,"CCCOCCOCc1ccc2ccc(CN3CCC(NC(=O)c4cccc(OC)c4)CC3)cc2c1 [Example 29, 3-Methoxy-N-[1-({7-[(2-propoxyethoxy)methyl]-2-naphthyl}methyl)piperidin-4-yl]benzamide]",≤ 30
6,"COc1cccc(C(=O)NC2CCN(Cc3ccc4ccc(CNCCN5CCCC5)cc4c3)CC2)c1 [Example 48, 3-Methoxy-N-{1-[(7-{[(2-pyrrolidin-1-ylethyl)amino]methyl}-2-naphthyl)methyl]piperidin-4-yl}benzamide]",≤ 30
7,"CNCCNCc1ccc2ccc(CN3CCC(NC(=O)c4cccc(OC)c4)CC3)cc2c1 [Example 67, 3-Methoxy-N-(1-{[7-({[2-(methylamino)ethyl]amino}methyl)-2-naphthyl]methyl}piperidin-4-yl)benzamide trihydrochloride]",≤ 30
8,"CCOC(=O)CCc1ccc2ccc(CN3CCC(NC(=O)c4cccc(OC)c4)CC3)cc2c1 [Example 139, ethyl 3-[7-({4-[(3-methoxybenzoyl)amino]piperidin-1-yl}methyl)-2-naphthyl]propanoate]",≤ 30
9,"COc1cccc(C(=O)NC2CCN(Cc3ccc4ccc(CC=O)cc4c3)CC2)c1 [Example 119, 3-methoxy-N-(1-{[7-(2-oxoethyl)-2-naphthyl]methyl}piperidin-4-yl)benzamide]",≤ 30
10,"COc1cccc(C(=O)NC2CCN(Cc3ccc4ccc(OC)cc4c3)CC2)c1 [Example 166, 3-methoxy-N-{1-[(7-methoxynaphthalen-2-yl)methyl]piperidin-4-yl}benzamide]",≤ 30
11,"COCc1ccc2ccc(CN3CCC(NC(=O)c4ccc(F)c(Cl)c4)CC3)cc2c1 [Example 134, 3-chloro-4-fluoro-N-(1-{[7-(methoxymethyl)-2-naphthyl]methyl}piperidin-4-yl)benzamide]",≤ 30
12,"COCCOCCc1ccc2ccc(CN3CCC(NC(=O)c4cccc(OC)c4)CC3)cc2c1 [Example 121, 3-methoxy-N-[1-({7-[2-(2-methoxyethoxy)ethyl]-2-naphthyl}methyl)piperidin-4-yl]benzamide]",≤ 30
13,"COc1cccc(C(=O)NC2CCN(Cc3ccc4ccc(OCCCN(C)C)cc4c3)CC2)c1 [Example 118, N-[1-({7-[3-(Dimethylamino)propoxy]-2-naphthyl}methyl)piperidin-4-yl]-3-methoxybenzamide]",≤ 30
14,"CCOCCOCc1ccc2ccc(CN3CCC(NC(=O)c4cccc(OC)c4)CC3)cc2c1 [Example 28, N-[1-({7-[(2-Ethoxyethoxy)methyl]-2-naphthyl}methyl)piperidin-4-yl]-3-methoxybenzamide]",≤ 30
15,"COc1cccc(C(=O)NC2CCN(Cc3ccc4ccc(CN5CCCCC5)cc4c3)CC2)c1 [Example 66, 3-Methoxy-N-(1-{[7-(piperidin-1-ylmethyl)-2-naphthyl]methyl}piperidin-4-yl)benzamide trihydrochloride]",≤ 30
16,"COc1cccc(C(=O)NC2CCN(Cc3ccc4ccc(COCCOCc5ccccc5)cc4c3)CC2)c1 [Example 27, N-{1-[(7-{[2-(Benzyloxy)ethoxy]methyl}-2-naphthyl)methyl]piperidin-4-yl}-3-methoxybenzamide]",≤ 30

row,Compound,IC50 [nM]
1,"COCc1ccc2ccc(CN3CCC(NC(=O)c4cc(OC)c(C)c(OC)c4)CC3)cc2c1 [Example 12, 3,5-Dimethoxy-N-(1-{[7-(methoxymethyl)-2-naphthyl]methyl}piperidin-4-yl)-4-methylbenzamide]",≤ 30
2,"COc1cccc(C(=O)NC2CCN(Cc3ccc4ccc(COCCC(C)OC)cc4c3)CC2)c1 (stereo not shown) [Example 170, 3-methoxy-N-[1-({7-[(3-methoxybutoxy)methyl]naphthalen-2-yl}methyl)piperidin-4-yl]benzamide]",≤ 30
3,"COc1cccc(C(=O)NC2CCN(Cc3ccc4ccc(CCCO)cc4c3)CC2)c1 [Example 140, N-(1-{[7-(3-hydroxypropyl)-2-naphthyl]methyl}piperidin-4-yl)-3-methoxybenzamide]",≤ 30
4,"CCOCc1ccc2ccc(CN3CCC(NC(=O)c4ccc(F)c(Cl)c4)CC3)cc2c1 [Example 6, 3-chloro-N-(1-{[7-(ethoxymethyl)-2-naphthyl]methyl}piperidin-4-yl)-4-fluorobenzamide]",≤ 30
5,"O=C(NC1CCN(Cc2ccc3cc(O)ccc3c2)CC1)c1ccc(F)c(Cl)c1 [Example 129, 3-chloro-4-fluoro-N-{1-[(6-hydroxy-2-naphthyl)methyl]piperidin-4-yl}benzamide]",≤ 30
6,"COCCOCc1ccc2ccc(CN3CCC(NC(=O)c4cccc(OC)c4)CC3)cc2c1 [Example 26, 3-Methoxy-N-[1-({7-[(2-methoxyethoxy)methyl]-2-naphthyl}methyl)piperidin-4-yl]benzamide]",≤ 30
7,"COc1cccc(C(=O)NC2CCN(Cc3ccc4ccc(COCCC(C)C)cc4c3)CC2)c1 [Example 23, 3-Methoxy-N-[1-({7-[(3-methylbutoxy)methyl]-2-naphthyl}methyl)piperidin-4-yl]benzamide]",≤ 30
8,"COCCOCc1ccc2ccc(CN3CCC(NC(=O)c4cccc(C(C)=O)c4)CC3)cc2c1 [Example 90, 3-Acetyl-N-[1-({7-[(2-methoxyethoxy)methyl]-2-naphthyl}methyl)piperidin-4-yl]benzamide]",≤ 30
9,"COCCCOc1ccc2ccc(CN3CCC(NC(=O)c4cccc(OC)c4)CC3)cc2c1 [Example 115, 3-Methoxy-N-(1-{[7-(3-methoxypropoxy)-2-naphthyl]methyl}piperidin-4-yl)benzamide]",≤ 30
10,"COCCOc1ccc2ccc(CN3CCC(NC(=O)c4cccc(OC)c4)CC3)cc2c1 [Example 113, 3-methoxy-N-(1-{[7-(2-methoxyethoxy)-2-naphthyl]methyl}piperidin-4-yl)benzamide]",≤ 30
11,"COCCOCc1ccc2ccc(CN3CCC(NC(=O)c4cccc(N(C)C)c4)CC3)cc2c1 [Example 82, 3-(Dimethylamino)-N-[1-({7-[(2-methoxyethoxy)methyl]-2-naphthyl}methyl)piperidin-4-yl]benzamide]",≤ 30
12,"COc1cccc(C(=O)NC2CCN(Cc3ccc4ccc(COCCN(C)C)cc4c3)CC2)c1 [Example 37, N-{1-[(7-{[2-(dimethylamino)ethoxy]methyl}-2-naphthyl)methyl]piperidin-4-yl}-3-methoxybenzamide]",≤ 30
13,"COC(=O)c1ccc2ccc(CN3CCC(NC(=O)c4cccc(OC)c4)CC3)cc2c1 [Example 3, methyl 7-({4-[(3-methoxybenzoyl)amino]piperidin-1-yl}methyl)-2-naphthoate]",≤ 30
14,"COc1cccc(C(=O)NC2CCN(Cc3ccc4ccc(CCCCO)cc4c3)CC2)c1 [Example 138, N-(1-{[7-(4-hydroxybutyl)-2-naphthyl]methyl}piperidin-4-yl)-3-methoxybenzamide]",≤ 30
15,"COc1cccc(C(=O)NC2CCN(Cc3ccc4ccc(C=O)cc4c3)CC2)c1 [Example 5, N-{1-[(7-formyl-2-naphthyl)methyl]piperidin-4-yl}-3-methoxybenzamide]",≤ 30
